At least one read-out could not be matched to a standard name with certainty.
Test system: dog (beagle)
Experiment: Acute toxicity test, dog (beagle)
Format: in vivo
Conditions: female, peroral
Excerpt: |Acute Toxicity LD50 (mg/μg)

## CC(=O)CCC=C(C)CCC=C(C)CCC=C(C)CCC=C(C)C [teprenone, 6,10,14,18-tetramethyl-5,9,13,17-nonadecatetraen-2-one]
  Acute Toxicity LD50: > 1,000 mg/μg
